Data as given in PubChem BioAssay AID1508597 (Cure First, 2020)

Purpose: 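Knock-downs altering ovarian cancer cell survival with or without PARP inhibitor rucaparib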 (primary screen)
Cells: human ovarian carcinoma lines grown from tumours: OCI-P5x (papillary serous) and OCI-C5x (clear cell)
Knock-down reagent: siRNA pool against human genes, 1.25 pmol siRNA per well
Time to read-out: 72 h or 96 h, depending on the cell culture
Treatment: rucaparib 20 µM (about IC30) or vehicle, present until read-out
Rucaparib or vehicle: Vehicle
Cell line: OCI-P5x (serous)
Measurement: 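ATP luminescence measured at 72 or 96 h according to the culture, then normalised and expressed as percent viability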
Scale: viability, normalised: higher = more viable cells remaining
Active means: 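Active when normalised viability falls below 80 percent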
Calls: active = viability under 80%; inactive = viability 80% or more
Shown is a random part of the about 2,100 reagents, in one setting of the screen. 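Calls flag viability under 80% in either arm, not effects specific to rucaparib; the reference for percent is not stated.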 Unmarked entries are inactive. Not given: the 100% reference.

With RCOR1 (REST corepressor 1), technical replicate 1, the entry reads viability, normalised (%) = 34.9 (active).
RCOR1 (REST corepressor 1), technical replicate 2 showed viability, normalised (%) = 45 (active).
RCOR1 (REST corepressor 1), technical replicate 3 scored viability, normalised (%) = 70.1 (active).
RASSF7 (Ras association domain family member 7), technical replicate 1 gave viability, normalised (%) = 82.8.
With RASSF7 (Ras association domain family member 7), technical replicate 2, the entry reads viability, normalised (%) = 77.3 (active).
RASSF7 (Ras association domain family member 7), technical replicate 3 showed viability, normalised (%) = 84.2.
For MORC2 (MORC family CW-type zinc finger 2), technical replicate 1, the entry reads viability, normalised (%) = 42.4 (active).
MORC2 (MORC family CW-type zinc finger 2), technical replicate 2 gave viability, normalised (%) = 48 (active).
MORC2 (MORC family CW-type zinc finger 2), technical replicate 3 scored viability, normalised (%) = 51.7 (active).

Part of the list above, reformatted.
| gene knocked down | technical replicate | viability, normalised (%) |
| --- | --- | --- |
| RCOR1 (REST corepressor 1) | 1 | 34.9 (active) |
| RCOR1 (REST corepressor 1) | 2 | 45 (active) |

The list goes on:
GDPD5 (glycerophosphodiester phosphodiesterase domain containing 5), technical replicate 1 scored viability, normalised (%) = 82.8.
GDPD5 (glycerophosphodiester phosphodiesterase domain containing 5), technical replicate 2 gave viability, normalised (%) = 86.5.
GDPD5 (glycerophosphodiester phosphodiesterase domain containing 5), technical replicate 3 gave viability, normalised (%) = 64.6 (active).
RAD54L2 (RAD54 like 2), technical replicate 1 gave viability, normalised (%) = 27.3 (active).
RAD54L2 (RAD54 like 2), technical replicate 2 showed viability, normalised (%) = 51.3 (active).
RAD54L2 (RAD54 like 2), technical replicate 3 gave viability, normalised (%) = 59 (active).
For KSR1 (kinase suppressor of ras 1), technical replicate 1, the values are viability, normalised (%) = 88.3.
With KSR1 (kinase suppressor of ras 1), technical replicate 2 the deposit lists viability, normalised (%) = 66.9 (active).
KSR1 (kinase suppressor of ras 1), technical replicate 3 scored viability, normalised (%) = 60.9 (active).
For JAK1 (Janus kinase 1), technical replicate 1, the values are viability, normalised (%) = 52.1 (active).
JAK1 (Janus kinase 1), technical replicate 2 gave viability, normalised (%) = 58.2 (active).
JAK1 (Janus kinase 1), technical replicate 3 scored viability, normalised (%) = 61.4 (active).
